The other results are listed elsewhere or left out.
test system: T1, CTL2-GFP (C. trachomatis L2/434/Bu, GFP-expressing); set-up: species or system HeLa; Intracellular C. trachomatis growth in HeLa cells, bulk GFP fluorescence relative to DMSO; conditions: bulk GFP, single well; 28.5 h, 10 µM; inhibitor
T1 construct: L2/434/Bu, GFP-expressing

SMILES | % of control remaining
COc1c(C(=O)Nc2ccc(CN3CCOCC3)cc2)cc2ccccc2c1Br [CBK268593] | 120.204%
Cc1cc(C)c(OCC(=O)Nc2ccc3oc(-c4cncc(Br)c4)nc3c2)c(Cl)c1 [CBK266634] | 122.209%
CCN(Cc1ccco1)C(=O)Cn1c(=O)n(C)c2ncccc21 [CBK282390] | 111.748%
CCOc1ccccc1CNc1ccc(C2c3ccsc3CCN2C(C)=O)cc1 (stereo not shown) [CBK286459] | 105.891%
Nc1cccc(-c2cc(Nc3ccc(Cl)cc3)ncn2)c1 [CBK090886] | 97.5348%
c1ccc(Nc2nc(-c3cccs3)cn3ccnc23)cc1 [CBK066513] | 93.2613%
CC1CCCN(C(=S)NC2CC3CCC2C3)C1 (stereo not shown) [CBK085999] | 140.142%
COc1ccc(NC(=O)Cc2csc(NC(=O)c3ccco3)n2)c(OC)c1 [CBK287649] | 101.192%
CCCn1c(SCC(=O)NC2CCN(CC)CC2)nc2cc(Cl)ccc21 [CBK305027] | 82.5074%
CCC(=O)N1CCC[C@@H]1Cn1nc(-c2cccs2)ccc1=O [CBK282304] | 127.732%
Cc1oc(S(=O)(=O)N(C)C)cc1C(=O)O [CBK113681] | 95.9158%
COCCNC(=O)C1CCCN(c2nc3c(-c4ccccc4)csc3c(=O)[nH]2)C1 (stereo not shown) [CBK215497] | 103.618%
COC(=O)[C@@H](C)NC(=O)[C@@H]1CN(C(=O)c2cccc(F)c2)CCN1S(C)(=O)=O [CBK289625] | 135.117%
CCCCC(CC)CN1CNC(=S)NC1 (stereo not shown) [CBK265404] | 100%
COC(=O)C1(Cc2cc(-c3cccc(F)c3)no2)CCOCC1 [CBK285330] | 124.673%
Cc1cnn(CC2CCCN2C(=O)CC2OCCc3ccsc32)c1 (stereo not shown) [CBK305370] | 122.794%
NCCSC1CC(=O)N(Cc2cccs2)C1=O (stereo not shown) [CBK269047C] | 187.305%
Cc1n[n+]2c(C(=O)Nc3ccc(S(=O)(=O)Nc4nccs4)cc3)c(C)[n-]n2c1[N+](=O)[O-] [CBK293983] | 82.8341%
CC(C)(C)OC(=O)N1CCC(C(=O)NCc2ccccn2)CC1 [CBK305696] | 113.145%
COc1cc(CN2CCC(Cc3ccccc3-c3ccccc3)(C(N)=O)CC2)cc(OC)c1 [CBK285912] | 162.746%
Cc1ccc2c(c1)oc(=O)n2CCNC(=O)Cc1c[nH]c2ccccc12 [CBK284473] | 108.569%
Oc1cc(CCc2ccc(F)cc2)nc2ccnn12 [CBK281876] | 118.619%

Rewritten as a markdown table: entries from further up.

| SMILES | % of control remaining |
| --- | --- |
| CCCn1c(SCC(=O)NC2CCN(CC)CC2)nc2cc(Cl)ccc21 [CBK305027] | 82.5074% |
| Cc1n[n+]2c(C(=O)Nc3ccc(S(=O)(=O)Nc4nccs4)cc3)c(C)[n-]n2c1[N+](=O)[O-] [CBK293983] | 82.8341% |
